Measurements as given in patent US6013642A, “Use of estrone derivatives as steroid sulphatase inhibitors” (priority 1994, dated 2000).
For at least one compound, name, drawing or mass did not settle the structure.

Test system: mouse contact sensitisation model
Test: Contact sensitisation (oxazalone, ear swelling) in mice
Type: in vivo
Details: Metabolites Experiment 1, FIG. 15; DHEA 0.005-5 mg/kg, AED 0.05-5 mg/kg s.c. days 0 and 4
Method: 1. Contact Sensitisation (CS)
On day 0, mice were painted on their shaved right flank with 50 μl 2.5% oxazalone or vehicle (acetone 4:1 olive oil). On day 5 animals were challenged on their dorsal right ear surface with 25 μl of either 0.75% or 0.25% oxazalone. Prior to ear challenge, and 24, 48 and 72 hour post challenge ear thickness was measured using an engineer's micrometers. Ear swelling is determined as the difference in thickness prior and post challenge. The data are expressed as percentage change from the vehicle treated groups given sensitisation and challenge.
DHEA, DHEAS were administered at various times, generally at time of sensitisation (day 0) and time of challenge (day 3 or 4-DTH model, day 4 or 5-(CS-model) in order to obtain an augmentation of the immune response above non-steroid treated animals.
Different doses of the inhibitors have been used, and compared to the effect of dexamethasone as potential immunosuppressive/anti-inflammatory agents.

SMILES: C[C@]12CC[C@H]3[C@@H](CC=C4C[C@@H](O)CC[C@@]43C)[C@@H]1CC[C@@H]2O [AED, Androstenediol]
- ear swelling response: can augment the ear swelling response
